Source: paper PMC4182762
Results are given in words; binding and its absence hold for the method and conditions named. Binding seen in cells or lysates may run through a third protein. Some entries that bind do so weakly or less than the wild type.

Protein sequences, listed by entry. Tags and fused reporters are not part of them.
UniProt Q9Z0H3: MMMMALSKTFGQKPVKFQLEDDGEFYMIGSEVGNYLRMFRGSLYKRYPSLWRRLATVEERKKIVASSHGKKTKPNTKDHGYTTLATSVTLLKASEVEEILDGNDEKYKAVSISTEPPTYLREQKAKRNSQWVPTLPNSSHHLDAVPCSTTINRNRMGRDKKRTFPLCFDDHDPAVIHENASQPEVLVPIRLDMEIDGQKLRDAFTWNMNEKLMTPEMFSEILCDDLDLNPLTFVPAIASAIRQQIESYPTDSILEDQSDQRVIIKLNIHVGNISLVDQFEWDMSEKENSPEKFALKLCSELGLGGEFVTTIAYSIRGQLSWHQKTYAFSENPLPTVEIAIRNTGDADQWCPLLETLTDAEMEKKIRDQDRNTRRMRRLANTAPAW
UniProt Q3TKT4: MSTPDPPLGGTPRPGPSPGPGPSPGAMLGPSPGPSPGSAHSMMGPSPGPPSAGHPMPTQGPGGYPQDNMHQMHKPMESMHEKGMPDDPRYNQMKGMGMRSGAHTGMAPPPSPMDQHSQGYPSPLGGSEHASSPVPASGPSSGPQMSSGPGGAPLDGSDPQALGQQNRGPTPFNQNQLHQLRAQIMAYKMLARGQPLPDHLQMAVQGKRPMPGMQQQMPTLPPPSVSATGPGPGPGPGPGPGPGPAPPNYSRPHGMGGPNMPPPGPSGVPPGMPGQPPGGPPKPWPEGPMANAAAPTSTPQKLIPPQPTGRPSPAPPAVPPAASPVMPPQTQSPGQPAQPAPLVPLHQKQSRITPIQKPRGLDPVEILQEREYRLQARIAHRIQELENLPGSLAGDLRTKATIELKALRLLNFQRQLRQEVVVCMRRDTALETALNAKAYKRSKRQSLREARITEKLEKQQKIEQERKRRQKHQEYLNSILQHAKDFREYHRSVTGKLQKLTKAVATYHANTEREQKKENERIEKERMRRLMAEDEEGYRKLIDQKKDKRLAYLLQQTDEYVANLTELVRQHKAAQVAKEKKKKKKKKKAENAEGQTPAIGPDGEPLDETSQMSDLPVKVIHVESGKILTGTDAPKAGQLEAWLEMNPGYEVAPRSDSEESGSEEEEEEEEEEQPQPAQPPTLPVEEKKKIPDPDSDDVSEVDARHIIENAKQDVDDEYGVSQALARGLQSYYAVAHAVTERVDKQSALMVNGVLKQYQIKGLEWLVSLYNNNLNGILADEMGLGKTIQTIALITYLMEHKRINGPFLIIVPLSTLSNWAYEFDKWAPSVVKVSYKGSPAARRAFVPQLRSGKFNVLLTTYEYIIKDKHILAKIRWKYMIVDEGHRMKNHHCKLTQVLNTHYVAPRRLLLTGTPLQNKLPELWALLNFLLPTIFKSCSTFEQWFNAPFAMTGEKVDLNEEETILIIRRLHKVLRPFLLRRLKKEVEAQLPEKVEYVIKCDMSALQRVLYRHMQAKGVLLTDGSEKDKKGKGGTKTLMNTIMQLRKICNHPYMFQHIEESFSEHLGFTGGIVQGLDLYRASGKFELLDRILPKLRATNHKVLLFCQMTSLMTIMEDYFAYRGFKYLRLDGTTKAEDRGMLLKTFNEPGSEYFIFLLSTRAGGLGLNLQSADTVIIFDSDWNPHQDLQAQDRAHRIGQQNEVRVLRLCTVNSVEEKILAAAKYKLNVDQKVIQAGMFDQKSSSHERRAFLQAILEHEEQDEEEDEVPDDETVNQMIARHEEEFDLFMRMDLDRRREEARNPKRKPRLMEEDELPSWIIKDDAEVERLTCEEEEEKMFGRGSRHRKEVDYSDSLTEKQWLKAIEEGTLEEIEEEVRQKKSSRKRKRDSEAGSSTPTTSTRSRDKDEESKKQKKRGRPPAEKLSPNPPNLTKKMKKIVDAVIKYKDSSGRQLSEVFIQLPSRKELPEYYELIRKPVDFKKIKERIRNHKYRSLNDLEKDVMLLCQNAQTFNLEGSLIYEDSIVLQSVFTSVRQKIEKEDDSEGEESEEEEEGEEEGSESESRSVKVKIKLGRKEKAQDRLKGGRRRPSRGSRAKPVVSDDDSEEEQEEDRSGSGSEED
UniProt P10085: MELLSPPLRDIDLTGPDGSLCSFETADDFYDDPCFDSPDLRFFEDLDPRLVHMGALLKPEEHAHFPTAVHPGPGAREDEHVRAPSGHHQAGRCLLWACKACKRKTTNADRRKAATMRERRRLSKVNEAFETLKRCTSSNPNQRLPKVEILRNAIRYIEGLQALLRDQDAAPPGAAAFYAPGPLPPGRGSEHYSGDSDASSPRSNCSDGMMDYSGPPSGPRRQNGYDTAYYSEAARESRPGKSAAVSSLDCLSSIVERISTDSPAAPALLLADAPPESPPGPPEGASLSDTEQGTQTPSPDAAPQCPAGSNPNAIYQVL
UniProt O09106: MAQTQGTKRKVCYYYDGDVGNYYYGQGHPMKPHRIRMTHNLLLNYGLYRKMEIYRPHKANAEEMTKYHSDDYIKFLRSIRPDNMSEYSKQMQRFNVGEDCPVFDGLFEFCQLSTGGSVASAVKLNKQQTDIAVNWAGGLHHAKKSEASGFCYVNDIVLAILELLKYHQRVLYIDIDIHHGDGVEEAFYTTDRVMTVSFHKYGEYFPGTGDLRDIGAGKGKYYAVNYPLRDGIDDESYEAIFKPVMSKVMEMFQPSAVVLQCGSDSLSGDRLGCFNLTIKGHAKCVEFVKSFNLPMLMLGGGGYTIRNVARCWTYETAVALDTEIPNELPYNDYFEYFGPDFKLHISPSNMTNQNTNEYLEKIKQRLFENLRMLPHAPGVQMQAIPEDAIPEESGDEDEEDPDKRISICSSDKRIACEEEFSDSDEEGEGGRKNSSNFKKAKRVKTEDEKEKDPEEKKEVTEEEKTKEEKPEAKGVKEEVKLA
UniProt P70288: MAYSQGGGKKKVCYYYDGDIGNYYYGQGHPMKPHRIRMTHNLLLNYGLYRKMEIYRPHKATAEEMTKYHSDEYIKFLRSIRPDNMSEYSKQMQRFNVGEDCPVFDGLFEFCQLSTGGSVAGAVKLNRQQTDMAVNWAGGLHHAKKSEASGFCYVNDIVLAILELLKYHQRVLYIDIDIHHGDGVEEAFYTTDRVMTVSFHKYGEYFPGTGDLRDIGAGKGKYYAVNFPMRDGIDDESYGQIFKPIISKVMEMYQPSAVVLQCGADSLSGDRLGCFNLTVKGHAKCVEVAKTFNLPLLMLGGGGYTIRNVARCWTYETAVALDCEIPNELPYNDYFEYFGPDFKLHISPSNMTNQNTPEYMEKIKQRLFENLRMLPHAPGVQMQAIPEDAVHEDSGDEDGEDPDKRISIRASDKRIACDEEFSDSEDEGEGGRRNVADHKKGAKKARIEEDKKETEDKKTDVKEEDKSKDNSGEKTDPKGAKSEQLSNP

Assays:
[1] = biological target: BAF47/INI1/SNF5/SMARCB1 (mouse (endogenous in C2C12)) (UniProt Q9Z0H3); assay: co-IP; endogenous co-IP from nuclear extracts of early differentiating C2C12 myoblasts (24 h DM); antibodies against BRG1 or BAF47; western blot
[2] = biological target: Brahma-Related Gene 1 (mouse (endogenous in C2C12)) (UniProt Q3TKT4); assay: co-IP; endogenous co-IP from nuclear extracts of C2C12 myoblasts, proliferating (GM) or after 24 h in differentiation medium (DM); micrococcal nuclease, sonication; 5 µg antibody (MyoD, BAF47 or BRG1) overnight at 4°C; washes 150 mM NaCl, 0.5% Triton X-100; western blot
[3] = biological target: BAF47/INI1/SNF5/SMARCB1 (mouse (endogenous in C2C12)) (UniProt Q9Z0H3); assay: as above

| Substance | binding [1] | binding [2] | binding [3] |
| --- | --- | --- | --- |
| Brahma-Related Gene 1 (from UniProt Q3TKT4 1-1613) | binds weakly | – | – |
| MyoD (from UniProt P10085 1-318) | – | binds | binds |
| HDAC1 (from UniProt O09106 1-482) | – | binds | binds |
| HDAC2 (from UniProt P70288 1-488) | – | binds | binds |
